These are yes or no findings as the source states them, for the method shown. In cells and extracts the contact can be indirect. Binding can be weak; no strength is given.
Tests used:
[1] = biological target: Protein Disulfide-Isomerase A3 (PDIA3) (human (endogenous in HeLa)) (UniProt P30101); assay: proximity ligation; HeLa cells stably expressing V5-tagged SERPINA2 or SERPINA1 variants, fixed in ice-cold methanol; antibodies against V5 and CANX or V5 and PDIA3; Duolink kit, rolling-circle amplification; spots per positive cell counted with Duolink image tool
[2] = biological target: calnexin (CANX) (human (endogenous in HeLa)) (UniProt P27824); assay: as above

The chains behind the UniProt entries cited, without tags or fusion partners. Where a name states a change or a piece, a line headed by the entry shows the natural chain unless it says otherwise. Residues count along the entry.
UniProt P30101, residues 25-505: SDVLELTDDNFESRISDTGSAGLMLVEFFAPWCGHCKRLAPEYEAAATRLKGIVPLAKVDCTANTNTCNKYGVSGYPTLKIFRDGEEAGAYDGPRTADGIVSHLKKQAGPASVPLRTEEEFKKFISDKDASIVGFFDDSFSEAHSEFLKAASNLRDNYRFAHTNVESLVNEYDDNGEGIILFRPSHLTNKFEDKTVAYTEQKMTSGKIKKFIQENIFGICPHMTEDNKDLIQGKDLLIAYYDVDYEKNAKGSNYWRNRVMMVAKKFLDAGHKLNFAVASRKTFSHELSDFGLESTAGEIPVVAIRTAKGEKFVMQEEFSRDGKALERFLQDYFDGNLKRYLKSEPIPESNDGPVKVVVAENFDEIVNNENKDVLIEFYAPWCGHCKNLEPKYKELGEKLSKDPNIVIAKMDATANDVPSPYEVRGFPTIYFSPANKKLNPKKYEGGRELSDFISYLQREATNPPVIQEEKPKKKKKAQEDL
UniProt P27824, residues 21-592: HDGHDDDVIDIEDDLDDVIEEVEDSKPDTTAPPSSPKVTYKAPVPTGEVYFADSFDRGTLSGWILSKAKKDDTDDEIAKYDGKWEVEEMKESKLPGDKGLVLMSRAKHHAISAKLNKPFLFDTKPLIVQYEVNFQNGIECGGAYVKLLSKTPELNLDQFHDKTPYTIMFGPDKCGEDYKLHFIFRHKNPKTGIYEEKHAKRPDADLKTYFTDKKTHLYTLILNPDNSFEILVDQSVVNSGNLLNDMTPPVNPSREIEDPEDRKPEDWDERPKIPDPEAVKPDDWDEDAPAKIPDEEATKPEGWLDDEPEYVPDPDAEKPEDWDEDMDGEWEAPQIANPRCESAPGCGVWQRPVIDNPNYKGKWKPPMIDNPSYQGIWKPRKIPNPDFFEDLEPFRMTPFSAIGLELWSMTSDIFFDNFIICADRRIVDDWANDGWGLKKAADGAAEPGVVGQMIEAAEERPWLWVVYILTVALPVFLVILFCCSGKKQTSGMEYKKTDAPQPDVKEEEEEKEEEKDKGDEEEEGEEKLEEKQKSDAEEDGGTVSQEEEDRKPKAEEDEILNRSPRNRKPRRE
UniProt P20848: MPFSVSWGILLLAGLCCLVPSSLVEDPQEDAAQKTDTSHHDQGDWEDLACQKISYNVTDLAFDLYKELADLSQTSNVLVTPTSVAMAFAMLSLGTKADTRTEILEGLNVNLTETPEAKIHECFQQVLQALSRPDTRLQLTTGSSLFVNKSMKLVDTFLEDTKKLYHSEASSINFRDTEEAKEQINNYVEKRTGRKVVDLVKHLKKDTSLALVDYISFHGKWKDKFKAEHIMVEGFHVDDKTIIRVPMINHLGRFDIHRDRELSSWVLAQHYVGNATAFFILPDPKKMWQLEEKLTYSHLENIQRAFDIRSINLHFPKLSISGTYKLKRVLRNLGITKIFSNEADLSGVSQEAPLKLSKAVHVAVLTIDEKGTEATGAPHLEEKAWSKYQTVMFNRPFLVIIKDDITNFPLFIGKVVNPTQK

| Substance | binding [1] | binding [2] |
| --- | --- | --- |
| SERPINA2 variant V2 (L308-E320), V5-tagged (from UniProt P20848) | binds | binds |
| SERPINA2 variant V3 (P308-E320), V5-tagged (from UniProt P20848) | binds | binds |
| SERPINA2 variant V1 (P308-K320), V5-tagged (from UniProt P20848) | binds | binds |

From PMC3691238
